Source: the supplement of paper PMC7666118
This is one part of the list.

By UniProt entry, the sequences of proteins in these tests, tags left out. Where a name states a change or a piece, a line headed by the entry shows the natural chain unless it says otherwise.
UniProt Q9H204: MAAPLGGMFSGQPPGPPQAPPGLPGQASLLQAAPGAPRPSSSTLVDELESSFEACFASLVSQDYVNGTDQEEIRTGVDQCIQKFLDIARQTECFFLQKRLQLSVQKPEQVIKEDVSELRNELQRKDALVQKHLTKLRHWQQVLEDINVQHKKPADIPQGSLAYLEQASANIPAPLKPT
UniProt Q2M296: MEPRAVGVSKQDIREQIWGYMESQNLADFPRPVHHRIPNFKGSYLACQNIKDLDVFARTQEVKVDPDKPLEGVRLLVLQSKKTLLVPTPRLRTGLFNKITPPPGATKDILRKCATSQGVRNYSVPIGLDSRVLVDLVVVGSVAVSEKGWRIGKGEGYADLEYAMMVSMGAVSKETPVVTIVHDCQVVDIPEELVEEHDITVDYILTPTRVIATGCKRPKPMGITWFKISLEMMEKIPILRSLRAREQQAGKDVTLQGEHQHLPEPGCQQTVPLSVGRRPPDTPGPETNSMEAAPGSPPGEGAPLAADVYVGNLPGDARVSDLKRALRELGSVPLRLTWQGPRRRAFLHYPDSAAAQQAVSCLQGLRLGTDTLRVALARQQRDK
UniProt Q9NPA3, whole entry: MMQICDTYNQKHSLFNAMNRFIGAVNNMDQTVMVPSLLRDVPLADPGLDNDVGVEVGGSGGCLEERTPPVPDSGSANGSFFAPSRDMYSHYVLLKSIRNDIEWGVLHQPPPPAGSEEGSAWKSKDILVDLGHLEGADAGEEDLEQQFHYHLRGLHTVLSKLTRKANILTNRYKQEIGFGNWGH
UniProt Q9Y6X9: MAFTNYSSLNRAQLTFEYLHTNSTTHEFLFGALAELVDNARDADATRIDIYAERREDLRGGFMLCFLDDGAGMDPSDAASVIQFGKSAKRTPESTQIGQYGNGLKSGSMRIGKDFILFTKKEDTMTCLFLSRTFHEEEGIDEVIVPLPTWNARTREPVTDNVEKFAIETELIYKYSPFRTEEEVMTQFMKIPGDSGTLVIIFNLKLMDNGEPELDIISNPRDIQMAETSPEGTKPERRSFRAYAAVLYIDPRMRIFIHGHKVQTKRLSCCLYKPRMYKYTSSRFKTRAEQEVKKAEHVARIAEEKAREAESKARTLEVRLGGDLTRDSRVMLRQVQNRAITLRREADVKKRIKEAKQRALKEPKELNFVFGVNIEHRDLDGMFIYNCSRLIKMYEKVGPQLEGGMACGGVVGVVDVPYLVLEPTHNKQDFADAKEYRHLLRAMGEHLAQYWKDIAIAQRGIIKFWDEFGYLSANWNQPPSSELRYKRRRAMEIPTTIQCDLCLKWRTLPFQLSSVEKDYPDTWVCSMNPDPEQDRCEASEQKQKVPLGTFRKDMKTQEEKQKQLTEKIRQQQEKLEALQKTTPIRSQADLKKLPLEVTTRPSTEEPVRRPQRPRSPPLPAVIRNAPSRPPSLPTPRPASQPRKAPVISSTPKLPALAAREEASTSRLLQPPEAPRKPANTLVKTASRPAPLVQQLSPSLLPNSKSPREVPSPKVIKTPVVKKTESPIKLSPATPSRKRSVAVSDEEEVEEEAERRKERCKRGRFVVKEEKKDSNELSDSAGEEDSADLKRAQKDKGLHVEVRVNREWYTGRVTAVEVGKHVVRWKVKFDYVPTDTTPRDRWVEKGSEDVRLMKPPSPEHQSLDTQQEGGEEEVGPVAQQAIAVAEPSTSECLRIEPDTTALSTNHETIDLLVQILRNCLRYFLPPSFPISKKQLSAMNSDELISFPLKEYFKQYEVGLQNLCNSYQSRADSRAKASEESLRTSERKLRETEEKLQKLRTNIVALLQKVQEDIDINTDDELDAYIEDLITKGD
UniProt O94776: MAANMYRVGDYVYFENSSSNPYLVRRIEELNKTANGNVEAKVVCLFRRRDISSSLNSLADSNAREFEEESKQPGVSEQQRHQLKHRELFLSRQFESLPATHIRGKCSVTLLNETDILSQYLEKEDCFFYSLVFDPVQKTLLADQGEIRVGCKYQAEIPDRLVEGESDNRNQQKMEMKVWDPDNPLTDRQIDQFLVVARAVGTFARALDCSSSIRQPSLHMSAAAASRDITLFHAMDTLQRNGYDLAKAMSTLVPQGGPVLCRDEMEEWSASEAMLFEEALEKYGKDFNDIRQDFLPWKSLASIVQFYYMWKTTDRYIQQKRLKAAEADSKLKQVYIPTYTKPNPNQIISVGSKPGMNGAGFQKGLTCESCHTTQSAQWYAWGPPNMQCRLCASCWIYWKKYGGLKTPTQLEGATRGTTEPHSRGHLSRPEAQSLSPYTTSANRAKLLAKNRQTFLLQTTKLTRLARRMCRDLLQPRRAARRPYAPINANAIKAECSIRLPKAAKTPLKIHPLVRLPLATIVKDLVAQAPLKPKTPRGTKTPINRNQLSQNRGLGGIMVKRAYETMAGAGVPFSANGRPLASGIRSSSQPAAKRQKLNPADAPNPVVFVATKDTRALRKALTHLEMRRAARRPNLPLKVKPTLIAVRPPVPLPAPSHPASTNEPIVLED
UniProt Q8TDZ2: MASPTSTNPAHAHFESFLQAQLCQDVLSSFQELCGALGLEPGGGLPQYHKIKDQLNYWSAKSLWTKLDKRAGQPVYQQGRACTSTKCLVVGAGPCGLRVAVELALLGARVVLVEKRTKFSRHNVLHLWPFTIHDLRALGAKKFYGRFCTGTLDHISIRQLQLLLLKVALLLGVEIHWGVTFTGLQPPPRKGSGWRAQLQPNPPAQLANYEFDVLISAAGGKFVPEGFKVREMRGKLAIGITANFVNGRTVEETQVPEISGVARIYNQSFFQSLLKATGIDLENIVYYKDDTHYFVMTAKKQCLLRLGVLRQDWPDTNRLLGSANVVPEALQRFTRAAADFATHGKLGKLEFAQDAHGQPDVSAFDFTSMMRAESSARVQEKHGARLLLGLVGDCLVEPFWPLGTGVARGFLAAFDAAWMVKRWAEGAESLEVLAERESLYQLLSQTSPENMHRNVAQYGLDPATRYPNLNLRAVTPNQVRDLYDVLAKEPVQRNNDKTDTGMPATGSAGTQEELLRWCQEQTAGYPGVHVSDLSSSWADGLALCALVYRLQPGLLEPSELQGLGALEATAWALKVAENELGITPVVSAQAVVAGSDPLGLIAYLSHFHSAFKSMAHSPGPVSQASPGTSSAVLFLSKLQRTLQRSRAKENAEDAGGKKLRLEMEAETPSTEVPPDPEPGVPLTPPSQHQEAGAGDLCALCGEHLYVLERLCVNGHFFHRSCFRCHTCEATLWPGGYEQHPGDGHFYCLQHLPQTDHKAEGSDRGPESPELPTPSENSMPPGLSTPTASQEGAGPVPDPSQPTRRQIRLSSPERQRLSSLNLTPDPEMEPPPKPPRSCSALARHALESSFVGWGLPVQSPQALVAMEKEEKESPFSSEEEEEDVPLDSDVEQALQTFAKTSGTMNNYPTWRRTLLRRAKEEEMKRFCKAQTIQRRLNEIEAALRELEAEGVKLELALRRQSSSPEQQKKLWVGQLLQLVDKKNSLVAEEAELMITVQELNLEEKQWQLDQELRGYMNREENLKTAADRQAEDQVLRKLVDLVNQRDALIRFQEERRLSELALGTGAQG
UniProt P26572: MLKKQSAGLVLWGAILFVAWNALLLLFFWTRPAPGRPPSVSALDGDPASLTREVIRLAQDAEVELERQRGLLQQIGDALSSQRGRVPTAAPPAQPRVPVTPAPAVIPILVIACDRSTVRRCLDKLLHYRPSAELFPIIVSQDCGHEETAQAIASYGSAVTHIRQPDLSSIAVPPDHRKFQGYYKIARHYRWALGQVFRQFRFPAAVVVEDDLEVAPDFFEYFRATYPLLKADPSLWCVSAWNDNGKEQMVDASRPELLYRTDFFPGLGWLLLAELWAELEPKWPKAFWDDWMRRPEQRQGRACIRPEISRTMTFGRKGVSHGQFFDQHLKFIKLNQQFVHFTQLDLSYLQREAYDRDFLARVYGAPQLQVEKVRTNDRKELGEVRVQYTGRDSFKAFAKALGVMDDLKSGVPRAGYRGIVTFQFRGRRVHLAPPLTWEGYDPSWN
UniProt O43795: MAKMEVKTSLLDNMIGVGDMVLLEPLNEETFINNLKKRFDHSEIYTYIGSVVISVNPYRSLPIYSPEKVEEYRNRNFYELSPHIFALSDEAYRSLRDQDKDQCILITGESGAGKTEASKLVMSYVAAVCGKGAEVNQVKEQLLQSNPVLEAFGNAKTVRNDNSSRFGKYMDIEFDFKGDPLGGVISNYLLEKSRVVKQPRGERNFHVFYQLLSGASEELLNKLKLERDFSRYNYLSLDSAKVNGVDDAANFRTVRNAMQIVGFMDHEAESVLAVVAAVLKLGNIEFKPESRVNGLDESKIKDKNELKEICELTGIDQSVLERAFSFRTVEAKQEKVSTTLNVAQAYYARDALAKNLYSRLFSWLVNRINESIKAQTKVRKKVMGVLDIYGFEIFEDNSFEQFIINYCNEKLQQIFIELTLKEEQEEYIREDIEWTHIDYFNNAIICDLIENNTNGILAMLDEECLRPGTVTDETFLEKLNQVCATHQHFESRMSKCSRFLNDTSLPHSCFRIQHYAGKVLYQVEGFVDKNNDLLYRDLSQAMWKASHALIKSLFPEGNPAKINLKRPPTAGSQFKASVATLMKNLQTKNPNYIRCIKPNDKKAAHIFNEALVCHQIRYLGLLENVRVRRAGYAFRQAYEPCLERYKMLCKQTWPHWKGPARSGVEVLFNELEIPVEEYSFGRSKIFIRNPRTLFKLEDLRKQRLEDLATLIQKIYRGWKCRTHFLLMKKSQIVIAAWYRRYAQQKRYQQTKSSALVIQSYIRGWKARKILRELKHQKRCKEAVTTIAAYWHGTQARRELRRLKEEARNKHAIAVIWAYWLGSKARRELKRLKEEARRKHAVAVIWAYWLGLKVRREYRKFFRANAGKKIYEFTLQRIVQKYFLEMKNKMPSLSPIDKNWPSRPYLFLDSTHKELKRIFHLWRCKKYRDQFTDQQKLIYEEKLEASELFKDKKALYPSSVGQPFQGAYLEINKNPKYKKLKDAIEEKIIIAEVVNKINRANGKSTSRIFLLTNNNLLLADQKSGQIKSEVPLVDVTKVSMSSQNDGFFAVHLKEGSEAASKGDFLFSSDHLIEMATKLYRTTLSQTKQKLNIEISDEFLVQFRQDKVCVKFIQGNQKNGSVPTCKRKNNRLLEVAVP
UniProt O00587: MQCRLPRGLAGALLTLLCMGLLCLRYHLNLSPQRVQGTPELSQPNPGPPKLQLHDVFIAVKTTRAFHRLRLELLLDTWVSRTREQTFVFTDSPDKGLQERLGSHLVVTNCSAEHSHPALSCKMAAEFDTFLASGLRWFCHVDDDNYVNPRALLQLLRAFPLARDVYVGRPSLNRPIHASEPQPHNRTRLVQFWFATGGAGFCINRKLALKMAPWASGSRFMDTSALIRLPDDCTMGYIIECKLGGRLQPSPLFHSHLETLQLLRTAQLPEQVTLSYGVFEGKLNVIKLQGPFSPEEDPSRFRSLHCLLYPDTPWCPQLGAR
UniProt Q9H7H0: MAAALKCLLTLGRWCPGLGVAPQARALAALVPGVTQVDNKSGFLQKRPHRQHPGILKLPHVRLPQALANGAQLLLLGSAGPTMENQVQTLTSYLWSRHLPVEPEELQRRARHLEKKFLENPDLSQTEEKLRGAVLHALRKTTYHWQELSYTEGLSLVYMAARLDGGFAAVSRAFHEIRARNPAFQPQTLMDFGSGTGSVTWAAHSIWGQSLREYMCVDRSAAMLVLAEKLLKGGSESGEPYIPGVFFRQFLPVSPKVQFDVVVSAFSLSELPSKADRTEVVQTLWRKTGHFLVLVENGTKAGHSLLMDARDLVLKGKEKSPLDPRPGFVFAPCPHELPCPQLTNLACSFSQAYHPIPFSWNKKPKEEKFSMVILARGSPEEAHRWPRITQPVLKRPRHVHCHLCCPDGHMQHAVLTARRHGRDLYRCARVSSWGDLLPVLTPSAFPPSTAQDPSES
UniProt Q9H7Z6: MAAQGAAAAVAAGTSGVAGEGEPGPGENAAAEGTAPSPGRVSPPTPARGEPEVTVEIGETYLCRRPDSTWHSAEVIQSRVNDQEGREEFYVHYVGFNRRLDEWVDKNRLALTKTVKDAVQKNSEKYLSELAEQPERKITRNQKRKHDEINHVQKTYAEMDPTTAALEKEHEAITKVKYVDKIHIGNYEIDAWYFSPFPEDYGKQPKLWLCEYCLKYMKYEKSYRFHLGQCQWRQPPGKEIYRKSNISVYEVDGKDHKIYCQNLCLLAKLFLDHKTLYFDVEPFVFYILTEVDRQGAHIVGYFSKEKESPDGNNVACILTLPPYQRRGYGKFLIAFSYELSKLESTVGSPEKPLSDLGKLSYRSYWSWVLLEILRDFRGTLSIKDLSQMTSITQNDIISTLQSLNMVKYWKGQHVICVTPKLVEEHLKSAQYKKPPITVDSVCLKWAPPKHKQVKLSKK
UniProt O75431: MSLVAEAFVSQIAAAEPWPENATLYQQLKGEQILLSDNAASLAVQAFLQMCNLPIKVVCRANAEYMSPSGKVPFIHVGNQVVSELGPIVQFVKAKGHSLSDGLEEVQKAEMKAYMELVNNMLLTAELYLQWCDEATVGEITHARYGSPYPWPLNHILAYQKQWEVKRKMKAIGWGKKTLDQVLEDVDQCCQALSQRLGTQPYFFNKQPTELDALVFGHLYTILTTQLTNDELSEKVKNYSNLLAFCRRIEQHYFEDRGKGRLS

What follows are targets tested with COc1ccc(Cn2ccc3cc(C)c(C(=O)NO)cc32)cc1 (assay: dose-dependent thermal stabilisation call (2D-TPP, DLPTP, 10% FDR) (binary (1 = stabilised)); higher = stabilised by the compound). Conditions: system: HL-60 intact cells; concentration range 0.04-10 µM.
Protocol: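 2D thermal proteome profiling in intact HL-60 cells treated with BRD-3811 (0, 0.04, 0.29, 2, 10 uM) for 90 min at 37 C, then heated 3 min at one of 12 temperatures (42-63.9 C). Soluble protein was quantified by TMT10 MS. The value is the DLPTP call of the paper: dose-dependent thermal stabilisation over all temperatures at 10% FDR (F-test of a dose-response against a flat model); one experiment, one call per tested protein.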

Target | dose-dependent thermal stabilisation call
MRPL53 (UniProt Q96EL3) | inactive: 0
MEGF8 (UniProt Q7Z7M0) | inactive: 0
MED28 (UniProt Q9H204) | inactive: 0
MGRN1 (UniProt O60291) | inactive: 0
MRC2 (UniProt Q9UBG0) | inactive: 0
MTHFSD (UniProt Q2M296) | inactive: 0
MIG12 (UniProt Q9NPA3) | inactive: 0
MORC2 (UniProt Q9Y6X9) | inactive: 0
MTA2 (UniProt O94776) | inactive: 0
MFSD9 (UniProt Q8NBP5) | inactive: 0
MICAL1 (UniProt Q8TDZ2) | inactive: 0
MGC16169 | inactive: 0
MTF2 (UniProt Q9Y483) | inactive: 0
MED21 (UniProt Q13503) | inactive: 0
MRPL15 (UniProt Q9P015) | inactive: 0
MMACHC (UniProt Q9Y4U1) | inactive: 0
MGAT1 (UniProt P26572) | inactive: 0
MRPS9 (UniProt P82933) | inactive: 0
MRPS10 (UniProt P82664) | inactive: 0
MRPS5 (UniProt P82675) | inactive: 0

Target | dose-dependent thermal stabilisation call
MTCH1 (UniProt Q9NZJ7) | inactive: 0
MOCS2 | inactive: 0
MYO1B (UniProt O43795) | inactive: 0
MRPS14 (UniProt O60783) | inactive: 0
MOBKL3 (UniProt Q9Y3A3) | inactive: 0
MED26 (UniProt O95402) | inactive: 0
MFNG (UniProt O00587) | inactive: 0
METT11D1 (UniProt Q9H7H0) | inactive: 0
METT10D (UniProt Q86W50) | inactive: 0
MRPL23 (UniProt Q16540) | inactive: 0
MYL6 (UniProt P60660) | inactive: 0
MYST1 (UniProt Q9H7Z6) | inactive: 0
MLEC (UniProt Q14165) | inactive: 0
MPP6 | inactive: 0
MORF4L2 (UniProt Q15014) | inactive: 0
MTX2 (UniProt O75431) | inactive: 0
MRCL3 | inactive: 0
MSL1 (UniProt Q68DK7) | inactive: 0
MRPL2 (UniProt Q5T653) | inactive: 0
MRRF (UniProt Q96E11) | inactive: 0

Retrieved one by one from the entries so far (two):
Target | dose-dependent thermal stabilisation call
METT11D1 (UniProt Q9H7H0) | inactive: 0
MOCS2 | inactive: 0
